# At least one peptide structure holds a part that was inferred or is arguable (an end, a ring closure or a residue). Ends that are not written are not given here.
# Tests used:
# [1] = test system: purified brush border membranes, supplemented with 100 μU/μL of PEP; test: In vitro digestion with brush border membranes supplemented with PEP; type: in vitro ADME, rat; conditions: 100 μU/μL PEP, 1 or 4 hours
# Method: In vitro Digestion of Gliadin Peptides. The in vitro digestion of each peptide was performed as follows: 75 μM (final concentration) of peptide was combined with 32 μL of 0.03 M HCl, pepsin (1:100 w pepsin/w peptide) and water to give a volume of 104 μL. The reaction was carried out for 30 minutes at 37° C. and was stopped by the addition of 40 μL of 1M sodium phosphate/sodium bisphosphate (pH 7.04). Chymotrypsin (1:100 w/w), trypsin (1:100.7 w/w), elastase (1:200 w/w), and carboxypeptidase A (1:100 w/w) were then added to give a final reaction volume of 168 μL. The reaction mixture was incubated at 37° C. for the indicated time and then stopped by heating at 90° C. for 5 minutes. Alternatively, the peptide ([…]) was combined with rat intestinal brush border enzymes, where the final concentration of brush border aminopeptidase N was 100 μU/μL. The rat intestinal brush border was prepared as described (Ahnen et al., 1982) and the activity was measured by assaying continuously at 30° C. in 0.1 M Tris HCl, pH 8.0, containing 1 mM Leu-pNA [extinction coefficient at 410 nm (ε410)=8,800 M^−1/cm^−1] in 1% dimethyl sulfoxide to improve solubility. In some reactions prolyl endopeptidase was also added at a final concentration of 100 μU/μL. The reaction mixture was analyzed by reverse phase HPLC on a Vydac 218MS54 column (4.6 mm inner diameter×15 cm).
# Given the stability of gliadin peptides to intestinal peptidases and initial results indicating PEP is active against α-gliadin epitopes, the efficacy of in vitro digestion with PEP was examined. To quantify the incremental effect of PEP, we incubated the gliadin peptides with purified brush border membranes, supplemented with 100 μU/μL of PEP for 1 or 4 hours at 37° C.
# [2] = test system: intact rat intestine co-perfused with prolyl endopeptidase (PEP); type: in vivo, Sprague-Dawley rats; conditions: 41.7 μg/mL recombinant PEP (~190 μU/μL), P5 plus 2 mg/mL pepsin, chymotrypsin, trypsin pretreated gliadin
# Excerpt: In vivo Rat Intestinal Perfusion. Our procedure for in vivo intestinal perfusion of peptides in rats was modified from the Smithson and Gray procedure as follows: Sprague-Dawley rats, 250-350 g were anesthetized with isoflurane, the abdomen opened, the ligament of Treitz (duodenal-jejunal junction) identified and polyethylene catheters [2.5 mm outer diameter×1 mm inner diameter] were installed with the proximal infusion catheter placed 5 cm beyond the ligament of Treitz and the collection catheter positioned 20 cm distally. Animal core temperature was monitored to be at 37° C. by rectal thermometer. Peptides for intra-intestinal perfusion were 1 mM GLGG, 0.1 mM P3, 0.1 mM P4, 0.1 mM P5, 0.1 mM P8, 0.1 mM P9, and 0.1 mM P10. […]
# In a separate experiment, pepsin, trypsin and chymotrypsin digested gliadin (Sigma, St. Louis, Mo.) was perfused at 2 mg/mL along with 0.05 mM P5 and 41.7 […] PEP (˜190 μU/μL) to determine the effect of smaller, more accessible peptide fragments on P5 digestion. The perfusion effluent was collected, immediately frozen and subsequently analyzed by reverse phase HPLC on a Vydac 218MS54 column (4.6 mm inner diameter×15 cm). The rate of substrate disappearance for the peptides was calculated as previously detailed (Smithson and Gray, 1977). […]
Sequence,incremental (supplemental) effect of adding PEP on in vitro BBM digestion [1],elimination of P5 by PEP in a mixture of gliadin peptides [2]
LQLQPFPQPQLPYPQPQLPYPQPQLPYPQPQPF [Peptide P5],dramatic supplemental effect,efficiently eliminated
"QLQPFPQPQLPY [Peptide P2, QLQPFPQPQLPY]",marginal,–
"VSFQQPQQQYPSSQ [Peptide P6, VSFQQPQQQYPSSQ]",marginal,–

# Reference: US7534426B2, “Glutenase enzyme assays” (The Board of Trustees of the Leland Stanford Junior …, priority 2004, dated 2009)
